Out of some 52,000 sequences screened, about 210 (0.4%) were called active.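 The calls were made as follows: active = gene whose silencing raises cell survival under the drug, median off-target-corrected z-score across its silencing RNAs 2 or more; inactive = the rest.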 The list shows a part of the results.

Our source for the z-score values is PubChem BioAssay AID1347423 (Functional Genomics Laboratory (NCATS/FGL), 2020).

The assay in a line: Resistance to Poly (ADP-Ribose) Polymerase inhibitor: Gene Identification via Genome-wide siRNA Screen. The following applies: mouse BRCA2 R2336H ES cells, olaparib, CellTiter-Glo viability; stronger effect = higher value. The method in brief: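 Mouse BRCA2 R2336H ES cells were reverse-transfected with siRNA (20 nM final), treated at 48 h with 500 nM olaparib, and read by CellTiter-Glo after 72 h. Scores: MAD-based z per siRNA, median per gene, seed off-target correction.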
In the case of GGGCUUGGUUUUGGACAUUTT against Fuk, the z-score is inactive: 0.0113.

In the case of “CCUAGAAAGAGGACUCAGATT against 6330583M11Rik”, the z-score is inactive: -0.794. For GGGAUUUCUAUAACCCGUUTT against Cldn3 the value was inactive: -1.13; for CCUAACGGUCAGAAGUUGATT against Ccng1, inactive: 0.555; for GGUCUUCAGGGAGUUCUUCTT against Dnajb3, inactive: 1.03.

Turning to GCCCAAGGUGAUCAUUAUUTT against Casp1, the z-score is inactive: 0.869. For GGAGAUCGACAAAUGCCUGTT against Gna13 the value was inactive: -0.849; for CCUCAUCUCAUAUGUUCAGTT against LOC209387, inactive: -1.24. For GCUAACCAACUUAAUUCUATT against Angptl3 the value was inactive: 1.31. Take CCUUCCUACCGGAGAAUGATT against Capn6: the z-score is inactive: -0.848. For GGAAUCAAGGACUUUAGUATT against Slc17a2 the value was inactive: 0.795; for CCUUAGGGAGAUAAGCUUUTT against Olfr604, inactive: 0.0992; for GGAAGUAGGAUGAUGUUGGTT against Hmga1, inactive: -0.501. In the case of GCAAAUGGUUAUGCAUACATT against Clecsf6, the z-score is inactive: -0.0391. For GGCAUAAAAUCCAUCUAAUTT against Htr2a the value was inactive: 1.14. For CCGGACAAUAUGCUUAUUUTT against Mastl the value was inactive: 0.982. GGUGUAUACUGUGAAAUCATT against Notch1: the z-score is inactive: 1.76. In the case of CCACAUCAAGUUCACCCAGTT against Dctn1 it was inactive: -0.968; in that of GCCGGAACAUCCAGAAUAGTT against Cpeb2, inactive: -2.64; in that of AGUCUCCAAAUGCAUUUAATT against Serpinb9g, inactive: -2.48. In the case of GCGGCGAGUGUAUAGAUUGTT against Zdhhc1 it was inactive: 0.77. For “GAGGAAGACACUUUUCCUGTT against 2410012H02Rik” the value was inactive: 1.93; for CGCAAAAUUCCGAUGGUGCTT against Pla2g12b, inactive: 0.962; for “CGCAAGAUACCAACACUUATT against A930017E24Rik”, inactive: -0.29. On to “GCUAUAUGUACCCUAGCCATT against E130307C13”, for which the z-score was inactive: -0.313.

As to GGUUAAAGGCAACCCUGAATT against Cys1, the z-score is inactive: -2.51. For GGAAAACCCAGGUCAGAAUTT against Serpina9 the value was inactive: -0.578; for GAUCAAAGAGGAGGAGCCCTT against Insm2, inactive: -0.218; for GGCUUGUACUACCAUGACATT against Rasgef1b, inactive: 0.6. For GCAGCUAUCUCUCAUGGACTT against Olfr693 the value was inactive: 0.317; for “GGAAGAACCUGCCAAGAUCTT against E030049G20Rik”, inactive: -1.23; for “GCAUGCAUAAGCUUUUACCTT against 1700129C05Rik”, inactive: 1.07.

On to “GAGUGAGCAAAUACCAGUUTT against 1700001J03Rik”, for which the z-score was inactive: 0.0356. Consider “GGGCUUGAUUGAAUCGGCUTT against D5Bwg0860e”, for which the z-score is inactive: 0.856. For GCCUAGAAAGUCUGAAUAATT against Ifng the value was inactive: -1.03; for “GUGUUCAGCAAUUCCUACCTT against 1110017O22Rik”, inactive: -0.348. As for “GGGAACCAUGAACAAUGUGTT against 9430059P22Rik”, the z-score is inactive: 0.307. Turning to GGUGGUGUGCAAAAAGUACTT against Clic1, the z-score is inactive: 1.15. In the case of “CCUCUGACCUAGUUUUUCUTT against 9630020C08Rik” it was inactive: 0.397; in that of GCUGACUCAUACGAAAAACTT against Pftk1, inactive: 0.352. Consider GGCAUUCCAGUAAUUUUGGTT against Gpr23, for which the z-score is inactive: 0.235. In the case of GGGUCACCGAUGGAAAUCUTT against Lta4h it was inactive: 1.31; in that of GCACAACACAAUCUAUAUGTT against Reps2, inactive: 0.405; in that of GGUUCACCUGUCAAGUGGATT against Hfe, inactive: 0.781. In the case of GGCCAUAGAUAUUCAAGGUTT against Olfr218 it was inactive: 1.11. In the case of CCCGGAUUAUUAAUGAGUCTT against Trim50, the z-score was inactive: -0.267. For GGUGAACAACUGGUUUAUUTT against Mrg2 the value was inactive: 0.395. For GGUUUGGUGUCAGAUGUCATT against Olfr1182 the value was inactive: -1.9; for CCUUGUCAUUCCAUACAAUTT against Rgs5, inactive: 0.564.

Consider GGAGAACAUCACCAGUUACTT against BC042901, for which the z-score was inactive: 0.45. In the case of GGAUGAUCUACACAUUGUGTT against Mrpl4 it was inactive: -0.532; in that of GGCUCAUAUUUCCAUCAGATT against S100a17, inactive: 0.199; in that of CCUGAUGCUUAGCAUAACGTT against Gm225, inactive: 1.43.

Consider GGAGAAAGGCCUUUUCUACTT against Olfr535, for which the z-score is inactive: 0.694. In the case of GGAUCUAUGAAGCAAAAAATT against Rasa2 it was inactive: 1.17; in that of “GGGUUGGUAUAGCUUUCAGTT against 3000002G13Rik”, inactive: 2.13.

For the sequence CGAGAUCACGAGAUCGGUUTT against Prdm4, the z-score is inactive: 2.21. Turning to GGGCUGGAAAGAACUUUACTT against Fgf8, the z-score is inactive: -1.26. In the case of GGAACUAAAUGUGAAACAUTT against BC037708 it was inactive: -0.799; in that of “CCAUUUGCUAUUGCUUAAATT against 2210404D11Rik”, inactive: 0.589; in that of GGGCUCUGUUGUAAUCAUGTT against Olfr366, inactive: 0.277.

As for GGUGAAGCAUGAGUUUAAATT against Arl8, the z-score was inactive: -2.37. For GCUCUUGGGAUGGACGAUATT against Hmgcs1 the value was inactive: 0.618; for GGAAGGUGGCCUGAAGCUATT against Mlh1, inactive: -2.12.

As for CCGACGGAUAGCUUGGAUGTT against Fgb, the z-score is inactive: -1.42. As for GCGAAGAAUGCAUCCUAAUTT against Thsd2, the z-score is inactive: 1.03. For GGUCAGAGAUUAUUGAAUUTT against Ermap the value was inactive: -0.25; for GGCAGAAGUAGAUUUACUCTT against BC052328, inactive: 0.833.

For the sequence GCAUGGCCCAUGAAGACUUTT against Pir, the z-score is inactive: -0.247.

Consider GGCACACAUCAUGUCUAAATT against Plin, for which the z-score was inactive: 0.802. For CCAUCAGUUUCAUUAUUGGTT against Fpr-rs6 the value was inactive: -0.37. As to CCUUCCAGCUUUAUUAGAGTT against Fzd1, the z-score is inactive: -0.291. In the case of CCAUUCAAACAGCAUUCAUTT against Itpr1 it was inactive: 0.287. For GGAACUGCCUUCGACCUGATT against Galm the value was inactive: -0.0752. As to GGAAAAGUGACGGUAUCUATT against Lamr1, the z-score was inactive: -3.2. As for GCUUGGUGUAAUCAUGCGCTT against Plfr, the z-score is inactive: -0.0373. In the case of “GGUUUUUCUAAGAGAACGGTT against 0610013E23Rik” it was inactive: -1.96. For GGGCAAAACACUGUCUUUCTT against Tlr5 the value was inactive: -0.871; for GGAGCAGAAGAAUGAAGGCTT against Sdbcag84, inactive: -1.18; for “UAUGUCCUUGACAUUGGAGTT against 2310014L17Rik”, inactive: 0.597. In the case of CGUGAUCCCACAGAUGUAGTT against Csrp3, the z-score was inactive: -1.81. For GGGAGAUGUAUGCUUGCUCTT against Evi2a the value was inactive: -0.697; for CGUUUGUUACUCUUCAGCUTT against Olfr1461, inactive: -0.0837; for CGACUCCAAGGAUUUGACUTT against Anxa10, inactive: -0.821. For GGCAACGGUACCUUUGUGGTT against Crtac1 the value was inactive: 1.69; for GGCCCUUUGAGUUAGAGAATT against Apln, inactive: -0.24. For GGACCAGUACAACUUUAAUTT against Prf1 the value was inactive: -1.41; for GGAGGAGCAAAAGUCAGAATT against Palm, inactive: -1.01; for “CCUUGUUCAAAAAGAUGGCTT against 0610012A11Rik”, inactive: -0.213.

Turning to GGCAGACUCGACAGUUCAATT against Pde6h, the z-score was inactive: 0.234. For “GCGGAAACUUGUUAACGAATT against 1600014C10Rik” the value was inactive: -0.502; for GGCCAGACUUUCUGACUAUTT against Golga1, inactive: 0.258. In the case of CCCUCACAACUUGAAGGACTT against Ccnk it was inactive: -2.29; in that of GCCUGAACUGGCUAGAAAUTT against Tnfsf5ip1, inactive: -0.148; in that of GCUUCUUAGAGUCUUACCUTT against Rnf38, inactive: -1.77.

“GCUAAUCCAGGUAUUGUCATT against 5730469D23Rik”: the z-score was inactive: 0.9. In the case of “CGUGUUCCGGUCGAGUACUTT against 1700030E05Rik” it was inactive: -0.715. In the case of CCGCUACCAGAUAAACUCGTT against BC053393 it was inactive: -0.752. In the case of CCCAAUCUCCUAAGAUCUGTT against Snca it was inactive: -0.396; in that of “GGCAUUUGGUCUUCAUAAATT against 1110032E23Rik”, inactive: 0.393. GGGUGUAAAGAAACCUUAATT against Avpr2: the z-score is inactive: 2.27. For the sequence GCUCAAGACAUACUUUGAATT against Ddx56, the z-score was inactive: -0.978. In the case of GGAAAAAGGAGGGUUUAGCTT against Tm4sf5 it was inactive: 0.418. In the case of GGCAAUCAGCAUACCAACUTT against Thbs2 it was inactive: 0.374.
